Laboratory results reported in paper doi:10.1101/2023.12.12.571289.

Chains of the proteins cited; added tags and fusions are not shown. Lines headed by an entry give the natural chain unless they say otherwise; changes in a name come on top. Residues count along the entry.
UniProt Q16610, residues 20-540: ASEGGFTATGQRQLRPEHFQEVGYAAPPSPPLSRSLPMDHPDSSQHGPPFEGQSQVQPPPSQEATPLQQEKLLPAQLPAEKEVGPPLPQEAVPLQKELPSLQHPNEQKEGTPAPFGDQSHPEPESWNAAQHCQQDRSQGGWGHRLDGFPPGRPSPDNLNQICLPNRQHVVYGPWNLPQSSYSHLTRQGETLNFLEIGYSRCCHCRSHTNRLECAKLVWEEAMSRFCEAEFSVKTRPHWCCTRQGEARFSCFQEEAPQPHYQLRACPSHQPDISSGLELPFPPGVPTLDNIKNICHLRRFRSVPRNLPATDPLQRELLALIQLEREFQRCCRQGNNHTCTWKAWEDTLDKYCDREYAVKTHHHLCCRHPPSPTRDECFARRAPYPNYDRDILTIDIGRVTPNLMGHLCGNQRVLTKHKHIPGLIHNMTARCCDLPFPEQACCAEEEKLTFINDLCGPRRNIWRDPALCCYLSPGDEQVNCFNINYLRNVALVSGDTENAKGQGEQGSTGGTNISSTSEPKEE
UniProt Q9UHI8: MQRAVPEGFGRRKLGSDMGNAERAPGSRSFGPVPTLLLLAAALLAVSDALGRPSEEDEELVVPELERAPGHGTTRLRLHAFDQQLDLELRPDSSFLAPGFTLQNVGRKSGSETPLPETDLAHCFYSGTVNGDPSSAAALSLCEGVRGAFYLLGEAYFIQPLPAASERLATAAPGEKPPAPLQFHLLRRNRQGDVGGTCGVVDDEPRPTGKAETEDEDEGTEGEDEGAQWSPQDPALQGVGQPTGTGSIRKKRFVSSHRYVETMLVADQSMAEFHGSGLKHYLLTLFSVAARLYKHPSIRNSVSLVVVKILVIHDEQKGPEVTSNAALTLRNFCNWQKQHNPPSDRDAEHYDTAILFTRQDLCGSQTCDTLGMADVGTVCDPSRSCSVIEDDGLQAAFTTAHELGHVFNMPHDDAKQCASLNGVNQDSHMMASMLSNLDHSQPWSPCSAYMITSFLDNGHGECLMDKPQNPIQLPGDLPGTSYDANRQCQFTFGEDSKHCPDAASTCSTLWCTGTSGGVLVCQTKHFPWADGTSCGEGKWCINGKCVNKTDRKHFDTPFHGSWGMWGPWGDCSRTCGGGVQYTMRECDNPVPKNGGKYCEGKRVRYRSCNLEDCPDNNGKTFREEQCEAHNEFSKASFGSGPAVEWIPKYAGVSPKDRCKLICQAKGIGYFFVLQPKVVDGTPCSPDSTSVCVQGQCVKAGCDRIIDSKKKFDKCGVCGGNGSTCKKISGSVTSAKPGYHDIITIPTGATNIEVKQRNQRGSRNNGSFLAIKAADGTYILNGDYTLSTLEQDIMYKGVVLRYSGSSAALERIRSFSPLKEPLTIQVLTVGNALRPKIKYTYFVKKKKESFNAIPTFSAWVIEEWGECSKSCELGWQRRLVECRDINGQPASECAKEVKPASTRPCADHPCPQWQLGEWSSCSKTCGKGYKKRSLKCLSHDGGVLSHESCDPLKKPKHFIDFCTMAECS
UniProt P08253: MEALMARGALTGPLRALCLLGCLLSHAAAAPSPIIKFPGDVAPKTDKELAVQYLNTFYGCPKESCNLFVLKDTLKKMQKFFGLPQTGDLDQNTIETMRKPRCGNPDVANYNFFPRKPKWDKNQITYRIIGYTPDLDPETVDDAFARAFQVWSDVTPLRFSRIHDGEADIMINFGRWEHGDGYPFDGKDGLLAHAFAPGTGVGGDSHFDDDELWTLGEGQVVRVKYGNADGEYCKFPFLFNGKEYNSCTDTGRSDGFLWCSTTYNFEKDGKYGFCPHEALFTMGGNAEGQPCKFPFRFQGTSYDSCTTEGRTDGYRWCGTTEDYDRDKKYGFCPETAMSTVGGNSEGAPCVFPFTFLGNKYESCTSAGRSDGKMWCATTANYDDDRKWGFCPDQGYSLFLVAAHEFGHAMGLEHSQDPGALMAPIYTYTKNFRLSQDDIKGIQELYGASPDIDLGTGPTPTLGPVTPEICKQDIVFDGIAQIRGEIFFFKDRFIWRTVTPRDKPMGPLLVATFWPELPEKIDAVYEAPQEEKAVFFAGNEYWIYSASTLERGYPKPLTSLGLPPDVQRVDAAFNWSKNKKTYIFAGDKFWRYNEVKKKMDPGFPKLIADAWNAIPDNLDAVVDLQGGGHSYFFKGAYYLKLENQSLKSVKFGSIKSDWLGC
UniProt P14780: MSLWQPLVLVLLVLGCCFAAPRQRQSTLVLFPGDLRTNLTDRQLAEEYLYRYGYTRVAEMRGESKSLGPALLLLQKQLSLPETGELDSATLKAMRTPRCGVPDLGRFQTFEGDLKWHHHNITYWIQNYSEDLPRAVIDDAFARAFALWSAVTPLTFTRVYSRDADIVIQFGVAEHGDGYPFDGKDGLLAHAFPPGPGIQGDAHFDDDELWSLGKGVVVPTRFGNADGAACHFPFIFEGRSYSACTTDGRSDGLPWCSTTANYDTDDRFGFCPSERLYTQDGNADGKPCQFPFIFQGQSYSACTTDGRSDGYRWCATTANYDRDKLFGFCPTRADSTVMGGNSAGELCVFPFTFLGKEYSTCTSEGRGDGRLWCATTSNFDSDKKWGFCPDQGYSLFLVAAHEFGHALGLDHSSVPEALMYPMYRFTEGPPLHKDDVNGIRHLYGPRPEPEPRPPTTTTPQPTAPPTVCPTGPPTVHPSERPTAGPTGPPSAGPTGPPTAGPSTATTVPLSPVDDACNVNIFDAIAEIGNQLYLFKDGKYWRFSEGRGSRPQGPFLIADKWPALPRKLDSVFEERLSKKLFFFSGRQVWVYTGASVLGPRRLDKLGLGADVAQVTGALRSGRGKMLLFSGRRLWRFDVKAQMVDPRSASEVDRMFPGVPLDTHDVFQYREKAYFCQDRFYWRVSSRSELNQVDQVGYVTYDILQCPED

target: recombinant ECM1 (rECM1) (UniProt Q16610); assay: pull-down

| Substance | binding |
| --- | --- |
| recombinant ADAMTS1 (from UniProt Q9UHI8) (enzyme) | binds |
| recombinant MMP-2 (from UniProt P08253) (enzyme) | binds |
| recombinant MMP-9 (from UniProt P14780) (enzyme) | binds |

These are yes or no findings as the source states them, for the method shown. Binding calls can cover weak binding; strength is not graded here.
